Test results as given in the supplement of paper PMC4604168 (melanoma cell lines).
The other results are listed elsewhere or left out. Single values are uncertain, as repeats are few or missing.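 Imaging used 1,536-well plates; nuclei positive for cleaved PARP by antibody were divided by total DNA-stained nuclei to yield the apoptosis fraction. Doses for screening kept most cells viable, and cell lines differ markedly in resting and induced cleaved-PARP levels.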

Experiments:
Experiment in all cases: cleaved PARP positive nuclei fraction relative to DMSO control; melanoma cells; higher = more apoptosis
Settings in all cases: library dose: low library concentration; 72 h
501Mel = system: 501Mel
A101D = system: A101D
A2058 = system: A2058
A375 = system: A375
C32 = system: C32
CBRC008 = system: CBRC008 (line from a melanoma biopsy)
CBRC014 = system: CBRC014 (line from a melanoma biopsy)
CBRC016 = system: CBRC016 (line from a melanoma biopsy)
CBRC017 = system: CBRC017 (line from a melanoma biopsy)
CBRC034 = system: CBRC034 (line from a melanoma biopsy)
COLO792 = system: COLO792
COLO800 = system: COLO800
COLO829 = system: COLO829
G361 = system: G361
IPC-298 = system: IPC-298
IST-MEL1 = system: IST-MEL1
LB2518-MEL = system: LB2518-MEL
LOXIMVI = system: LOXIMVI
MEL-HO = system: MEL-HO

SMILES | cleaved PARP positive nuclei fraction (501Mel) [%] | cleaved PARP positive nuclei fraction (A101D) [%] | cleaved PARP positive nuclei fraction (A2058) [%] | cleaved PARP positive nuclei fraction (A375) [%] | cleaved PARP positive nuclei fraction (C32) [%] | cleaved PARP positive nuclei fraction (CBRC008) [%] | cleaved PARP positive nuclei fraction (CBRC014) [%] | cleaved PARP positive nuclei fraction (CBRC016) [%] | cleaved PARP positive nuclei fraction (CBRC017) [%] | cleaved PARP positive nuclei fraction (CBRC034) [%] | cleaved PARP positive nuclei fraction (COLO792) [%] | cleaved PARP positive nuclei fraction (COLO800) [%] | cleaved PARP positive nuclei fraction (COLO829) [%] | cleaved PARP positive nuclei fraction (G361) [%] | cleaved PARP positive nuclei fraction (IPC-298) [%] | cleaved PARP positive nuclei fraction (IST-MEL1) [%] | cleaved PARP positive nuclei fraction (LB2518-MEL) [%] | cleaved PARP positive nuclei fraction (LOXIMVI) [%] | cleaved PARP positive nuclei fraction (MEL-HO) [%]
C[C@@H](N)c1ccc(C(=O)Nc2ccnc3[nH]ccc23)cc1 + COCC[n+]1c2c(n(Cc3cnccn3)c1C)C(=O)c1ccccc1C2=O [YM155] (first compound 0.4 µM, partner dose 0.0004 µM) | 55.5 | 45 | 115 | 97.5 | 92.9 | 316 | 118 | 111 | 90.1 | 34.8 | 79.5 | 73.9 | 110 | 123 | 87.2 | 59.8 | 81.7 | 143 | 118
CS(=O)(=O)c1ccc(C(=O)Nc2ccc(Cl)c(-c3ccccn3)c2)c(Cl)c1 [vismodegib] + COCC[n+]1c2c(n(Cc3cnccn3)c1C)C(=O)c1ccccc1C2=O [YM155] (first compound 1 µM, partner dose 0.0004 µM) | 78.1 | 171 | 37 | 206 | 101 | 75.9 | 102 | 28.3 | 96.7 | 116 | 102 | 147 | 212 | 94.5 | 135 | 135 | 110 | 76.6 | 75.2
C[C@@H](N)c1ccc(C(=O)Nc2ccnc3[nH]ccc23)cc1 + C=CCNC1=C2C[C@@H](C)C[C@H](OC)[C@H](O)[C@@H](C)/C=C(\C)[C@H](OC(N)=O)[C@@H](OC)/C=C\C=C(/C)C(=O)NC(=CC1=O)C2=O [Tanespimycin] (first compound 0.4 µM, partner dose 0.002 µM) | 100 | 94.7 | 173 | 187 | 92 | 87.3 | 134 | 83 | 92.4 | 193 | 114 | 75.5 | 187 | 170 | 40.7 | 60.5 | 85.1 | 171 | 40.7
Cn1cnc2c(F)c(Nc3ccc(Br)cc3Cl)c(C(=O)NOCCO)cc21 [selumetinib] + NC1(c2ccc(-c3nc4ccn5c(=O)[nH]nc5c4cc3-c3ccccc3)cc2)CCC1 [MK2206] (first compound 0.015 µM, partner dose 0.4 µM) | 4070 | 116 | 187 | 267 | 185 | 173 | 97.2 | 94.8 | 179 | 187 | 205 | 137 | 136 | 246 | 740 | 76.8 | 599 | 157 | 37.8
CCN(CC)CCNC(=O)c1c(C)[nH]c(/C=C2\C(=O)Nc3ccc(F)cc32)c1C [sunitinib] + Cc1cc(Nc2cc(N3CCN(C)CC3)nc(/C=C/c3ccccc3)n2)n[nH]1 [ENMD2076] (first compound 0.4 µM, partner dose 0.04 µM) | 67.8 | 41.1 | 104 | 116 | 75.6 | 38.8 | 91.1 | 163 | 77.4 | 111 | 98.2 | 71.1 | 86.1 | 98.3 | 82.2 | 39.5 | 95.8 | 251 | 38.2
COc1ccc(C2=N[C@@H](c3ccc(Cl)cc3)[C@@H](c3ccc(Cl)cc3)N2C(=O)N2CCNC(=O)C2)c(OC(C)C)c1 [Nutlin-3] + CCN(CC)CCNC(=O)c1c(C)[nH]c(/C=C2\C(=O)Nc3ccc(F)cc32)c1C [sunitinib] (first compound 0.1 µM, partner dose 0.4 µM) | 90.1 | 50.7 | 31.6 | 104 | 84 | 76.1 | 100 | 45.5 | 147 | 63.4 | 170 | 66.3 | 110 | 84.5 | 111 | 60.1 | 113 | 91.2 | 107
Cn1sc(=O)n(Cc2ccccc2)c1=O + COc1ccc(C2=N[C@@H](c3ccc(Cl)cc3)[C@@H](c3ccc(Cl)cc3)N2C(=O)N2CCNC(=O)C2)c(OC(C)C)c1 [Nutlin-3] (first compound 0.4 µM, partner dose 0.1 µM) | 68.8 | 148 | 208 | 44 | 70.3 | 63.3 | 110 | 147 | 142 | 170 | 85.9 | 93.9 | 128 | 47.9 | 175 | 33.2 | 129 | 127 | 143
Cn1sc(=O)n(Cc2ccccc2)c1=O + Nc1cccc2c1CN(C1CCC(=O)NC1=O)C2=O [lenalidomide] (first compound 0.4 µM, partner dose 1 µM) | 77.9 | 127 | 48.4 | 35.4 | 159 | 119 | 76.9 | 108 | 333 | 121 | 244 | 253 | 64.6 | 61.2 | 80.8 | 140 | 35 | 79.4 | 38.7
NC(=O)c1ccc(N(C(N)=O)c2c(F)cccc2F)nc1-c1ccc(F)cc1F + COc1ccc(C2=N[C@@H](c3ccc(Cl)cc3)[C@@H](c3ccc(Cl)cc3)N2C(=O)N2CCNC(=O)C2)c(OC(C)C)c1 [Nutlin-3] (first compound 0.4 µM, partner dose 0.1 µM) | 75.6 | 48.8 | 63.8 | 67.7 | 81.9 | 70.4 | 86.2 | 93.6 | 70.5 | 66.3 | 56.6 | 79.5 | 83.6 | 133 | 44.3 | 125 | 213 | 27.3 | 58.3
CC1(C)CCC(c2ccc(Cl)cc2)=C(CN2CCN(c3ccc(C(=O)NS(=O)(=O)c4ccc(N[C@H](CCN5CCOCC5)CSc5ccccc5)c(S(=O)(=O)C(F)(F)F)c4)cc3)CC2)C1 + COc1ccc(Cl)c(Nc2nc3ccccc3nc2NS(=O)(=O)c2cccc(NC(=O)C(C)(C)N)c2)c1 [XL147] (first compound 0.4 µM, partner dose 0.8 µM) | 100 | 84.8 | 128 | 608 | 364 | 512 | 509 | 1250 | 325 | 248 | 545 | 109 | 39.2 | 201 | 134 | 131 | 223 | 183 | 74
NC1(c2ccc(-c3nc4ccn5c(=O)[nH]nc5c4cc3-c3ccccc3)cc2)CCC1 + Cn1c(Nc2ccc(C(F)(F)F)cc2)nc2cc(Oc3ccnc(-c4ncc(C(F)(F)F)[nH]4)c3)ccc21 [CHIR265] (first compound 0.4 µM, partner dose 0.08 µM) | 109 | 165 | 62.7 | 612 | 107 | 228 | 101 | 86.8 | 99.6 | 83 | 265 | 152 | 121 | 109 | 194 | 106 | 187 | 165 | 123
NC(=O)c1ccc(N(C(N)=O)c2c(F)cccc2F)nc1-c1ccc(F)cc1F + O=C(O)c1ccc2c(c1)nc(Nc1cccc(Cl)c1)c1ccncc12 [CX4945] (first compound 0.4 µM, partner dose 0.4 µM) | 136 | 119 | 258 | 201 | 194 | 55.3 | 139 | 77.7 | 152 | 276 | 59 | 95.5 | 241 | 86.3 | 52.1 | 102 | 50.3 | 139 | 132
CC(=O)O[C@@]12CO[C@@H]1C[C@H](O)[C@@]1(C)C(=O)[C@H](O)C3=C(C)[C@@H](OC(=O)[C@H](O)[C@@H](NC(=O)OC(C)(C)C)c4ccccc4)C[C@@](O)([C@@H](OC(=O)c4ccccc4)[C@H]21)C3(C)C [Docetaxel] + O=C(O)[C@@H]1[O][Sb](=[O])([O][Sb]2(=[O])[O][C@H]([C@H](O)CO)[C@H](O)[C@H](C(=O)O)[O]2)[O][C@H]([C@H](O)CO)[C@@H]1O [stibogluconate] (first compound 0.0001 µM, partner dose 2 µM) | 275 | 137 | 4190 | 1670 | 178 | 414 | 137 | 226 | 233 | 154 | 464 | 401 | 286 | 487 | 67.1 | 99.9 | 158 | 144 | 181
COc1ccc(C2=N[C@@H](c3ccc(Cl)cc3)[C@@H](c3ccc(Cl)cc3)N2C(=O)N2CCNC(=O)C2)c(OC(C)C)c1 [Nutlin-3] + C#Cc1cccc(Nc2ncnc3cc(OCCOC)c(OCCOC)cc23)c1 [erlotinib] (first compound 0.1 µM, partner dose 0.8 µM) | 80.2 | 58.1 | 104 | 186 | 92 | 35.3 | 100 | 125 | 129 | 102 | 94.3 | 115 | 79.9 | 90 | 91.9 | 247 | 325 | 86.3 | 46.2
CC1(C)CCC(c2ccc(Cl)cc2)=C(CN2CCN(c3ccc(C(=O)NS(=O)(=O)c4ccc(N[C@H](CCN5CCOCC5)CSc5ccccc5)c(S(=O)(=O)C(F)(F)F)c4)cc3)CC2)C1 + Nc1ncn([C@H]2C[C@H](O)[C@@H](CO)O2)c(=O)n1 [decitabine] (first compound 0.4 µM, partner dose 0.1 µM) | 85.7 | 195 | 243 | 535 | 502 | 534 | 568 | 684 | 348 | 91.5 | 765 | 48.1 | 107 | 205 | 438 | 182 | 147 | 360 | 277

Two entries picked at random from those above:
SMILES | cleaved PARP positive nuclei fraction (501Mel) [%] | cleaved PARP positive nuclei fraction (A101D) [%] | cleaved PARP positive nuclei fraction (A2058) [%] | cleaved PARP positive nuclei fraction (A375) [%] | cleaved PARP positive nuclei fraction (C32) [%] | cleaved PARP positive nuclei fraction (CBRC008) [%] | cleaved PARP positive nuclei fraction (CBRC014) [%] | cleaved PARP positive nuclei fraction (CBRC016) [%] | cleaved PARP positive nuclei fraction (CBRC017) [%] | cleaved PARP positive nuclei fraction (CBRC034) [%] | cleaved PARP positive nuclei fraction (COLO792) [%] | cleaved PARP positive nuclei fraction (COLO800) [%] | cleaved PARP positive nuclei fraction (COLO829) [%] | cleaved PARP positive nuclei fraction (G361) [%] | cleaved PARP positive nuclei fraction (IPC-298) [%] | cleaved PARP positive nuclei fraction (IST-MEL1) [%] | cleaved PARP positive nuclei fraction (LB2518-MEL) [%] | cleaved PARP positive nuclei fraction (LOXIMVI) [%] | cleaved PARP positive nuclei fraction (MEL-HO) [%]
CCN(CC)CCNC(=O)c1c(C)[nH]c(/C=C2\C(=O)Nc3ccc(F)cc32)c1C [sunitinib] + Cc1cc(Nc2cc(N3CCN(C)CC3)nc(/C=C/c3ccccc3)n2)n[nH]1 [ENMD2076] (first compound 0.4 µM, partner dose 0.04 µM) | 67.8 | 41.1 | 104 | 116 | 75.6 | 38.8 | 91.1 | 163 | 77.4 | 111 | 98.2 | 71.1 | 86.1 | 98.3 | 82.2 | 39.5 | 95.8 | 251 | 38.2
NC1(c2ccc(-c3nc4ccn5c(=O)[nH]nc5c4cc3-c3ccccc3)cc2)CCC1 + Cn1c(Nc2ccc(C(F)(F)F)cc2)nc2cc(Oc3ccnc(-c4ncc(C(F)(F)F)[nH]4)c3)ccc21 [CHIR265] (first compound 0.4 µM, partner dose 0.08 µM) | 109 | 165 | 62.7 | 612 | 107 | 228 | 101 | 86.8 | 99.6 | 83 | 265 | 152 | 121 | 109 | 194 | 106 | 187 | 165 | 123
